Measured values published in publication PMC5327911 (Clinical Pharmacology : Advances and Applications, 2017).

Key:
[1] = cited from earlier work
P-glycoprotein (P-gp) = settings: cited from earlier work
[2] = human, plasma, oral, 100 mg

SMILES: CC(C)NCC(O)COc1ccc(CC(N)=O)cc1 (stereo not drawn) [Atenolol, atenolol]
- protein-bound [1]: ≤ 25%
- inhibition of P-gp-mediated transport (P-glycoprotein (P-gp)): does not inhibit
- AUC(0-inf) [2]: 5600 ng·h/mL
- AUC(0-t) [2]: 5500 ng·h/mL
- Cmax [2]: 603 ng/mL
- Tmax [2]: 3 h
